Data source: PubChem BioAssay AID504786 (Drosophila RNAi Screening Center, 2011)

Purpose: 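Fly genes required for HIF-dependent transcription when hypoxia is mimicked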 (primary screen)
Cell system: Drosophila S2 cells with a stable HIF luciferase reporter
Reagents: long dsRNA against Drosophila genes, about 0.2 µg dsRNA per well of a 384-well plate
Duration: three days of knock-down, then 20 h of DFO before reading
Challenge: desferrioxamine (DFO) at 100 µM, an iron chelator that mimics hypoxia, for 20 h
Read-out: 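HIF reporter luminescence in cells given 100 µM DFO for 20 h, using the mouse ldh-a hypoxia-response element, scored as per-plate z-scores; higher means greater loss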
Direction: z-score: higher = stronger loss of HIF reporter signal
The deposit covers about 21,000 reagents; this is a random part of those with a known target gene and a result. 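Primary screen; positive scores mean lost reporter signal, so the sign may be inverted from the usual convention.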 A plus sign joins genes that one reagent is predicted to hit. Reagent sequences are not shown.

How did the screen score sle [DRSC14557]?
z-score, replicate 1: -0.3; z-score, replicate 2: -0.5

How did the screen score nAChRalpha3 [DRSC18800]?
z-score, replicate 1: -0.4; z-score, replicate 2: -0.5

Which result is listed for CG3857 [DRSC18542]?
z-score, replicate 1: -0.2; z-score, replicate 2: -0.7

How did the screen score Or94b [DRSC16773]?
z-score, replicate 1: -0.3; z-score, replicate 2: -0.5

With CG33310 [DRSC01897], what does the deposit list?
z-score, replicate 1: -0.2; z-score, replicate 2: -0.5

What is on record for CG4338 [DRSC15564]?
z-score, replicate 1: -0.2; z-score, replicate 2: -0.3

What is on record for p47 [DRSC06046]?
z-score, replicate 1: -0.1; z-score, replicate 2: 1.1

For DCTN4-p62 [DRSC06101], what was measured?
z-score, replicate 1: -0.2; z-score, replicate 2: 0.3

What is on record for Patj [DRSC08712]?
z-score, replicate 1: 4.5; z-score, replicate 2: 4

How did the screen score CG17159 + CG17162 [DRSC20899]?
z-score, replicate 1: -0.3; z-score, replicate 2: -0.6

Which result is listed for CG17159 + CG17162 [DRSC20900]?
z-score, replicate 1: -0.4; z-score, replicate 2: -0.4

For Vha16-2 [DRSC10873], how do the results read?
z-score, replicate 1: -0.2; z-score, replicate 2: -0.3

For dgo [DRSC06134], what was measured?
z-score, replicate 1: -0.3; z-score, replicate 2: -0.5

Which result is listed for Gem4b + Gem4c + Glos [DRSC18244]?
z-score, replicate 1: -0.3; z-score, replicate 2: -0.3

What is on record for CG31058 (retired record) [DRSC15840]?
z-score, replicate 1: -0.5; z-score, replicate 2: 0.1

For MFS14 [DRSC06524], what does the deposit list?
z-score, replicate 1: -0.2; z-score, replicate 2: -0.4

What is on record for iPLA2-VIA [DRSC10699]?
z-score, replicate 1: 0; z-score, replicate 2: 0

What is on record for CG3270 [DRSC04988]?
z-score, replicate 1: -0.2; z-score, replicate 2: -0.3

Single entries from above.
Entry for iPLA2-VIA [DRSC10699] under “z-score, replicate 1”: 0
Patj [DRSC08712], z-score, replicate 2 = 4
Value of CG17159 + CG17162 [DRSC20900] under “z-score, replicate 1”: -0.4
sle [DRSC14557], z-score, replicate 2: -0.5

Next entries follow.
For CG8157 [DRSC07085], how do the results read?
z-score, replicate 1: -0.4; z-score, replicate 2: -0.5

What did the screen give for Syt1 [DRSC00156]?
z-score, replicate 1: -0.5; z-score, replicate 2: -0.3

For Syt1 [DRSC00157], what was measured?
z-score, replicate 1: -0.7; z-score, replicate 2: -0.4

With Syt1 [DRSC00158], what was measured?
z-score, replicate 1: -0.7; z-score, replicate 2: 0

With Syt1 [DRSC00840], what does the deposit list?
z-score, replicate 1: -0.2; z-score, replicate 2: -0.3

For Arf1 [DRSC11606], how do the results read?
z-score, replicate 1: -0.6; z-score, replicate 2: -1

With NimB5 [DRSC01885], what was measured?
z-score, replicate 1: -0.5; z-score, replicate 2: -0.6

What did the screen give for nec [DRSC06769]?
z-score, replicate 1: -0.3; z-score, replicate 2: -0.4

Which result is listed for CG16800 [DRSC02518]?
z-score, replicate 1: -0.3; z-score, replicate 2: -0.3

Which result is listed for CG17855 [DRSC02638]?
z-score, replicate 1: 1.7; z-score, replicate 2: 1.4

For CG8568 [DRSC20113], what was measured?
z-score, replicate 1: -0.2; z-score, replicate 2: -0.7

For DZIP1 [DRSC14620], what was measured?
z-score, replicate 1: -0.3; z-score, replicate 2: -0.2

With Hsp67Ba [DRSC11191], what does the deposit list?
z-score, replicate 1: 1; z-score, replicate 2: 1.7

What is on record for CG13627 [DRSC14629]?
z-score, replicate 1: -0.5; z-score, replicate 2: -0.5

What did the screen give for CG2059 [DRSC18203]?
z-score, replicate 1: -0.2; z-score, replicate 2: -0.5

With CG14086 [DRSC10090], what does the deposit list?
z-score, replicate 1: -0.2; z-score, replicate 2: 0.1

What did the screen give for CG31819 [DRSC01532]?
z-score, replicate 1: -0.3; z-score, replicate 2: 0.5

With Vap33 [DRSC18384], what was measured?
z-score, replicate 1: -0.3; z-score, replicate 2: -0.2

For az2 [DRSC07580], what does the deposit list?
z-score, replicate 1: 0; z-score, replicate 2: -0.1

What is on record for Cat [DRSC11110]?
z-score, replicate 1: -0.2; z-score, replicate 2: -0.4

With CG4390 [DRSC15572], what does the deposit list?
z-score, replicate 1: -0.2; z-score, replicate 2: -0.3

With CG5860 [DRSC15896], what does the deposit list?
z-score, replicate 1: -0.3; z-score, replicate 2: 0.3
